Experimental data as given in paper PMC10848067.
These are yes or no findings as the source states them, for the method shown. Binding seen in cells or lysates may run through a third protein. Some results given as binding are weak or reduced against the parent protein; the word gives no strength.

Chains of the proteins cited; added tags and fusions are not shown. Residues count along the entry.
UniProt Q64373: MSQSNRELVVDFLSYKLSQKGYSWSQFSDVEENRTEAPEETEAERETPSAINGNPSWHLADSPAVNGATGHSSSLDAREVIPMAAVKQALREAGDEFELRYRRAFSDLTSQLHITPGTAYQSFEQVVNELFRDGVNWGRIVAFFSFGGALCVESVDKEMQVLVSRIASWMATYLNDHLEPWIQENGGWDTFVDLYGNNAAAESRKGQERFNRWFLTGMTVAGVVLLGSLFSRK
UniProt P56480, residues 47-529: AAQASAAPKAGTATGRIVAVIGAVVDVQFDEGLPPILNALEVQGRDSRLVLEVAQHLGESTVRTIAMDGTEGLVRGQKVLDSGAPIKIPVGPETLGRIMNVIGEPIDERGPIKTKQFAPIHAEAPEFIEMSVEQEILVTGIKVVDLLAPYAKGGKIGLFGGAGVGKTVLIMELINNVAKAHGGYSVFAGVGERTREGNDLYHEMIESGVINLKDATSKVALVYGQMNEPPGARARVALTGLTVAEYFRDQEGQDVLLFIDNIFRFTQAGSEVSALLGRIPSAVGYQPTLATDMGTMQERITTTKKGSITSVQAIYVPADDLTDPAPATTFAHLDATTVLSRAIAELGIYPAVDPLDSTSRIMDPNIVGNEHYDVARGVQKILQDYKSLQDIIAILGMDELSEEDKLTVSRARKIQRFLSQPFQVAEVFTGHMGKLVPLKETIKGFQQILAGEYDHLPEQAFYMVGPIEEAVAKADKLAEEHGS

Tests used:
[1] = biological target: Bcl‐xL (mouse (endogenous in mouse brain tissue)) (UniProt Q64373); assay: co-IP; mouse brain tissue lysate of WT and PGAM5 knockout mice, precleared with protein A/G magnetic beads; 2 μg rabbit anti-Bcl-xL overnight at 4°C, then magnetic beads 4 h; blot for ATP-β
[2] = biological target: T1, PGAM5 (mouse (endogenous in mouse brain tissue)) (UniProt Q8BX10); assay: co-IP; mouse brain tissue lysate, precleared with protein A/G magnetic beads; 2.5 μg rabbit anti-Pgam5 overnight at 4°C, then magnetic beads 4 h; blot for ATP-β
T1 sequence: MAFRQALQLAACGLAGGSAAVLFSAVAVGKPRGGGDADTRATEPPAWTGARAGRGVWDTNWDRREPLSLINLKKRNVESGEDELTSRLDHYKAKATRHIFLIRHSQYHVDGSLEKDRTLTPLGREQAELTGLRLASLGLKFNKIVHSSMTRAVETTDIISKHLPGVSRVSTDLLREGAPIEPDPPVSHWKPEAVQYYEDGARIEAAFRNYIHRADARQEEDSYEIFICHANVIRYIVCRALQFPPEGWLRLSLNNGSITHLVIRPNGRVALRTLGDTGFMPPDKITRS

binding [1]: binds
binding [2]: binds
Substance: F1F0 ATP synthase β subunit (from UniProt P56480 47-529)
